Patent US6458923B1 (Scios Inc., priority 1991, dated 2002)

Assay: Boc solid-phase peptide synthesis; Boc-Arg(Tos)-PAM resin
Conditions: whole synthesis, scale 0.25 g resin

Substance: D-Arg-Arg-Pro-Hyp-Gly-Thi-Ser-(D-Ric)-Tic-Arg
- crude mass: 176 mg
